Assay: general procedure: peptide synthesis; Rink amide resin
Details: whole synthesis

Cys-(Gly)5-cyclic (KrRrRrRrRrRE)
final purity (method not given): 98.8%
